In paper PMC7202230:
No constants are given. Whether binding was seen depends on the method and setting. Binding seen in cells or lysates may run through a third protein. Some entries that bind do so weakly or less than the wild type.

Protein sequences, listed by entry. Tags and fused reporters are not part of them.
UniProt O43765: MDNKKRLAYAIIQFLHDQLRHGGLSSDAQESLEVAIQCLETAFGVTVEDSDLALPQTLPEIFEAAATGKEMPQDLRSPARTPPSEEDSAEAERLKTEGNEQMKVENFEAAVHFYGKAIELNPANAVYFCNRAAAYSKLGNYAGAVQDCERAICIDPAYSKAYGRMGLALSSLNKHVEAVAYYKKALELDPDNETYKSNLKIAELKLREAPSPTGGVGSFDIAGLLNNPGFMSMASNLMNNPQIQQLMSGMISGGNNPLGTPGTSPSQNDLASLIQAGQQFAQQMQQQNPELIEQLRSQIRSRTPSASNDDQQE
UniProt Q9Y6X1: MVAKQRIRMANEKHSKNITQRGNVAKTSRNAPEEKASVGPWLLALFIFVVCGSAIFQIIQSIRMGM

Target: HisTrx-SGTA (recombinant human SGTA, HisTrx-tagged) (human) (UniProt O43765)

binding: binds
Substance: RAMP4, stress-associated endoplasmic reticulum protein 1 (mRNA with a stop codon) (from UniProt Q9Y6X1 1-66)
